According to PMC7774954, “Interactomic affinity profiling by holdup assay: Acetylation and distal residues impact the PDZome-binding specificity of PTEN phosphatase” (PLoS ONE, 2020):
No constants are given. Whether binding was seen depends on the method and setting. Some binding calls cover weakened binding; strength is not graded here.

Sequences of proteins named here, by UniProt entry; tags and fusion partners are left off. A change or cut given only in a name is not applied to a line headed by its entry.
UniProt P60484: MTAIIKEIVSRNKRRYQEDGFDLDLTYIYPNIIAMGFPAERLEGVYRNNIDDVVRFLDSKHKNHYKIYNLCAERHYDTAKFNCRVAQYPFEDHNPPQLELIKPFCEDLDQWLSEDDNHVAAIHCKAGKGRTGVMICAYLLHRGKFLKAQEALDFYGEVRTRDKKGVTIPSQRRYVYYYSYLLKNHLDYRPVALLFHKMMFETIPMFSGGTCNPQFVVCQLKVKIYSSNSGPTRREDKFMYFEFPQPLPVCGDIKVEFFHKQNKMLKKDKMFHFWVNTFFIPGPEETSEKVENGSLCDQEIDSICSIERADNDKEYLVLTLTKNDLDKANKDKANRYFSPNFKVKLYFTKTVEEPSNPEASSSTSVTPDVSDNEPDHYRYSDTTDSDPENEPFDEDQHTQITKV

Legend:
[1] = target: T1, fRSK1, fluorescein-labelled RSK1 PBM peptide; experiment: fluorescence polarisation; competitive: pre-formed complex of PDZ domain (>60-80% complex) and 50 nM fluorescent tracer peptide, increasing amount of unlabeled PTEN peptide (8 concentrations); 20 mM HEPES pH 7.5, 150 mM NaCl, 0.5 mM TCEP, 0.01% Tween 20; triplicate; competitive binding model (ProFit); apparent; both purified
T1 sequence (peptide, fluorescein on the N-terminus): KLPSTTL

PTEN_11 (human) [2] = target: PTEN_11 (human) (UniProt P60484); experiment: holdup assay; biotinylated PBM peptide saturating streptavidin resin (biotin resin as reference); tag-PDZ at 4 uM in crude E. coli lysate, 15 min, filtration, free tag-PDZ by capillary electrophoresis; singlicate; BI cut-off 0.20; BI converted into KD with the peptide concentration back-calculated from FP; only the target purified
PTEN_13 (human) [3] = target: PTEN_13 (human) (UniProt P60484); experiment: as above
PTEN_Ac (human) [4] = target: PTEN_Ac (human) (UniProt P60484); experiment: as above
PTEN_KR (human) [5] = target: PTEN_KR (human) (UniProt P60484); experiment: as above
PTEN_11 (human) [6] = target: PTEN_11 (human) (UniProt P60484); experiment: holdup assay; biotinylated PBM peptide on streptavidin resin, biotin resin as reference; tag-PDZ at 4 uM in crude E. coli lysate, 15 min, filtrate read by capillary electrophoresis; singlicate; BI converted into KD with the mean peptide concentration back-calculated from FP (34, 28, 25, 17 uM); LogKD is -log10 of KD in M, overall uncertainty ± 0.12; cells at the column's lower value are pairs without detected binding; only the target purified
PTEN_13 (human) [7] = target: PTEN_13 (human) (UniProt P60484); experiment: as above
PTEN_Ac (human) [8] = target: PTEN_Ac (human) (UniProt P60484); experiment: as above
PTEN_KR (human) [9] = target: PTEN_KR (human) (UniProt P60484); experiment: as above

B1: PDZD7-3, third PDZ domain of PDZD7 (domain or fragment, UniProt Q9H5P4 862-934)
chain: TVTLSKMKQSLGISISGGIESKVQPMVKIEKIFPGGAAFLSGALQAGFELVAVDGENLEQVTHQRAVDTIRRA
- binding [1]: binds

B2: PDZD7-3 (domain or fragment, UniProt Q9H5P4 862-934)
chain: TVTLSKMKQSLGISISGGIESKVQPMVKIEKIFPGGAAFLSGALQAGFELVAVDGENLEQVTHQRAVDTIRRA
- binding (PTEN_11 (human) [2]): binds
- binding (PTEN_13 (human) [3]): binds
- binding (PTEN_Ac (human) [4]): binds
- binding (PTEN_KR (human) [5]): binds

B3: SDCBP-1 (domain or fragment, UniProt O00560 114-193)
chain: EVILCKDQDGKIGLRLKSIDNGIFVQLVQANSPASLVGLRFGDQVLQINGENCAGWSSDKAHKVLKQAFGEKITMTIRDR
- binding (PTEN_11 (human) [2]): no binding (tested: BI cut-off 0.20)
- binding (PTEN_13 (human) [3]): no binding (tested: BI cut-off 0.20)
- binding (PTEN_Ac (human) [4]): no binding (tested: BI cut-off 0.20)
- binding (PTEN_KR (human) [5]): no binding (tested: BI cut-off 0.20)

B4: INADL-9 (domain or fragment, UniProt Q8NI35 1533-1615)
chain: PVDLQKKAGRGLGLSIVGKRNGSGVFISDIVKGGAADLDGRLIQGDQILSVNGEDMRNASQETVATILKCAQGLVQLEIGRLR
- binding (PTEN_11 (human) [6]): no binding (tested: lower value)
- binding (PTEN_13 (human) [7]): no binding (tested: lower value)
- binding (PTEN_Ac (human) [8]): no binding (tested: lower value)
- binding (PTEN_KR (human) [9]): no binding (tested: lower value)

B5: NHERF4-1 (domain or fragment, UniProt Q86UT5 115-196)
chain: FCLLSKEEGKSFGFHLQQELGRAGHVVCRVDPGTSAQRQGLQEGDRILAVNNDVVEHEDYAVVVRRIRASSPRVLLTVLARH
- binding (PTEN_11 (human) [6]): no binding (tested: lower value)
- binding (PTEN_13 (human) [7]): no binding (tested: lower value)
- binding (PTEN_Ac (human) [8]): no binding (tested: lower value)
- binding (PTEN_KR (human) [9]): no binding (tested: lower value)

B6: NHERF4-4 (domain or fragment, UniProt Q86UT5 467-548)
chain: QCFLYPGPGGSYGFRLSCVASGPRLFISQVTPGGSAARAGLQVGDVILEVNGYPVGGQNDLERLQQLPEAEPPLCLKLAARS
- binding (PTEN_11 (human) [6]): no binding (tested: lower value)
- binding (PTEN_13 (human) [7]): no binding (tested: lower value)
- binding (PTEN_Ac (human) [8]): no binding (tested: lower value)
- binding (PTEN_KR (human) [9]): no binding (tested: lower value)

B7: PARD3B-1 (domain or fragment, UniProt Q8TEW8 201-289)
chain: TRTVEISGEGGPLGIHVVPFFSSLSGRILGLFIRGIEDNSRSKREGLFHENECIVKINNVDLVDKTFAQAQDVFRQAMKSPSVLLHVLP
- binding (PTEN_11 (human) [6]): no binding (tested: lower value)
- binding (PTEN_13 (human) [7]): no binding (tested: lower value)
- binding (PTEN_Ac (human) [8]): no binding (tested: lower value)
- binding (PTEN_KR (human) [9]): no binding (tested: lower value)

B8: PDZD2-1 (domain or fragment, UniProt O15018 85-182)
chain: LSFGNIPVFGDYGEKRRGGKKRKTHQGPVLDVGCIWVTELRKNSPAGKSGKVRLRDEILSLNGQLMVGVDVSGASYLAEQCWNGGFIYLIMLRRFKHK
- binding (PTEN_11 (human) [6]): no binding (tested: lower value)
- binding (PTEN_13 (human) [7]): no binding (tested: lower value)
- binding (PTEN_Ac (human) [8]): no binding (tested: lower value)
- binding (PTEN_KR (human) [9]): no binding (tested: lower value)

B9: PDZD2-3 (domain or fragment, UniProt O15018 586-672)
chain: IIGLYKEKGKGLGFSIAGGRDCIRGQMGIFVKTIFPNGSAAEDGRLKEGDEILDVNGIPIKGLTFQEAIHTFKQIRSGLFVLTVRTK
- binding (PTEN_11 (human) [6]): no binding (tested: lower value)
- binding (PTEN_13 (human) [7]): no binding (tested: lower value)
- binding (PTEN_Ac (human) [8]): no binding (tested: lower value)
- binding (PTEN_KR (human) [9]): no binding (tested: lower value)

B10: DFNB31-2 (domain or fragment, UniProt Q9P202 279-361)
chain: KVNLVLGDGRSLGLTIRGGAEYGLGIYITGVDPGSEAEGSGLKVGDQILEVNGRSFLNILHDEAVRLLKSSRHLILTVKDVGR
- binding (PTEN_11 (human) [6]): no binding (tested: lower value)
- binding (PTEN_13 (human) [7]): no binding (tested: lower value)
- binding (PTEN_Ac (human) [8]): no binding (tested: lower value)
- binding (PTEN_KR (human) [9]): no binding (tested: lower value)

B11: PDZD7-1 (domain or fragment, UniProt Q9H5P4 86-168)
chain: SVRVEKSPAGRLGFSVRGGSEHGLGIFVSKVEEGSSAERAGLCVGDKITEVNGLSLESTTMGSAVKVLTSSSRLHMMVRRMGR
- binding (PTEN_11 (human) [6]): no binding (tested: lower value)
- binding (PTEN_13 (human) [7]): no binding (tested: lower value)
- binding (PTEN_Ac (human) [8]): no binding (tested: lower value)
- binding (PTEN_KR (human) [9]): no binding (tested: lower value)

B12: PDZRN4-1 (domain or fragment, UniProt Q6ZMN7 224-314)
chain: TIVLERENDTLGFNIIGGRPNQNNQEGTSTEGIYVSKILENGPADRADGLEIHDKIMEVNGKDLSKATHEEAVEAFRNAKEPIVVQVLRRT
- binding (PTEN_11 (human) [6]): no binding (tested: lower value)
- binding (PTEN_13 (human) [7]): no binding (tested: lower value)
- binding (PTEN_Ac (human) [8]): no binding (tested: lower value)
- binding (PTEN_KR (human) [9]): no binding (tested: lower value)

B13: PDZRN4-2 (domain or fragment, UniProt Q6ZMN7 402-486)
chain: EVELCRVSSQEKLGLTVCYRTDDEEDTGIYVSEVDPNSIAAKDGRIREGDRILQINGEDVQNREEAVALLSNDECKRIVLLVARP
- binding (PTEN_11 (human) [6]): no binding (tested: lower value)
- binding (PTEN_13 (human) [7]): no binding (tested: lower value)
- binding (PTEN_Ac (human) [8]): no binding (tested: lower value)
- binding (PTEN_KR (human) [9]): no binding (tested: lower value)

B14: DLG3-1 (domain or fragment, UniProt Q92796 130-217)
chain: EEIVLERGNSGLGFSIAGGIDNPHVPDDPGIFITKIIPGGAAAMDGRLGVNDCVLRVNEVDVSEVVHSRAVEALKEAGPVVRLVVRRR
- binding (PTEN_11 (human) [6]): no binding (tested: lower value)
- binding (PTEN_13 (human) [7]): no binding (tested: lower value)
- binding (PTEN_Ac (human) [8]): no binding (tested: lower value)
- binding (PTEN_KR (human) [9]): no binding (tested: lower value)

B15: TJP2-3 (domain or fragment, UniProt Q9UDY2 509-590)
chain: NTKMVRFKKGDSVGLRLAGGNDVGIFVAGIQEGTSAEQEGLQEGDQILKVNTQDFRGLVREDAVLYLLEIPKGEMVTILAQS
- binding (PTEN_11 (human) [6]): no binding (tested: lower value)
- binding (PTEN_13 (human) [7]): no binding (tested: lower value)
- binding (PTEN_Ac (human) [8]): no binding (tested: lower value)
- binding (PTEN_KR (human) [9]): no binding (tested: lower value)

B16: USH1C-1 (domain or fragment, UniProt Q9Y6N9 87-169)
chain: EVRLDRLHPEGLGLSVRGGLEFGCGLFISHLIKGGQADSVGLQVGDEIVRINGYSISSCTHEEVINLIRTKKTVSIKVRHIGL
- binding (PTEN_11 (human) [6]): no binding (tested: lower value)
- binding (PTEN_13 (human) [7]): no binding (tested: lower value)
- binding (PTEN_Ac (human) [8]): no binding (tested: lower value)
- binding (PTEN_KR (human) [9]): no binding (tested: lower value)

B17: DLG3-3 (domain or fragment, UniProt Q92796 379-465)
chain: DFTREPRKIILHKGSTGLGFNIVGGEDGEGIFVSFILAGGPADLSGELRRGDRILSVNGVNLRNATHEQAAAALKRAGQSVTIVAQY
- binding (PTEN_11 (human) [6]): no binding (tested: lower value)
- binding (PTEN_13 (human) [7]): no binding (tested: lower value)
- binding (PTEN_Ac (human) [8]): no binding (tested: lower value)
- binding (PTEN_KR (human) [9]): no binding (tested: lower value)
